Experimental data from patent US20230193199A1, “Methods for Printing Functional Human Neural Tissue” (Wisconsin Alumni Research Foundation, priority 2021, published 2023).
For at least one compound, name, drawing or mass did not settle the structure.

Tested on: GABAA receptor
Assay: whole-cell patch-clamp recording of sIPSCs
Format: cell-based, human
Conditions: holding potential 0 mV; bicuculline 10

CN1CCc2cc3c(cc2[C@H]1[C@@H]1OC(=O)c2c1ccc1c2OCO1)OCO3 [bicuculline]
spontaneous inhibitory currents (sIPSCs): blocked
